Measurements reported in PubChem BioAssay AID1508588 (Peter MacCallum Cancer Centre, 2020)
Test: 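Knock-downs boosting vemurafenib effects on melanoma cell growth or lactate release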 (primary screen). Cell system: human WM266.4 melanoma cells (BRAF V600 mutant). Reagents: siRNA pool against human genes, 40 nM. Timing: 96 h from transfection to read-out. Conditions: vemurafenib 300 nM (about IC25), added 48 h after transfection, for 48 h; comparison arm got DMSO vehicle only. Detection: 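Ratios to non-targeting siRNA for cell gain, counted as DAPI nuclei after minus before drug and averaged over two replicates, and for absorbance-read medium lactate per cell; both binned into fold-change classes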. Reading the numbers: cell gain with vemurafenib: higher = more cell gain than with non-targeting siRNA; lactate per cell with vemurafenib: higher = more lactate made per cell. Active means: 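a knock-down counts as enhancing when its fold-change classes with vehicle and with vemurafenib, taken together, show a stronger drug effect on cell gain or lactate per cell; exact class pairs not stated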. Calls: active = enhances vemurafenib effect; inactive = no enhancement seen.
In all, the deposit lists about 18,000 reagents; this is a part drawn at random. 790 of them (4.4%) were called active. 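Calls rest on a combination of fold-change classes in drug and vehicle arms, not all shown here.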 A number with no mark means an inactive call. Reagent sequences are not shown.

gene knocked down,cell gain with vemurafenib,lactate per cell with vemurafenib
ATMIN,0.25,1.41
C6,0.96,1.48
CRABP1,0.44,0.68
ZNF622,0.63,0.54
CDK5,1.01,0.57
SEMA6D,0.47,1.52
TRAK1,0.08,1.09
TXK,0.53,0.7
SKA1,0.8,0.59
VPS26B,0.75,1.12
PCNX2,1.01,0.68
TMC5,0.64,1.04
LZTS2,0.13,2.63
UBD,0.82,0.9
CHCHD5,0.75,0.24
THRAP3,0.53,0.8
VSTM4,0.65,1.08
NAB2,0.72,0.66
TIA1,0.3,1.8
CTSV,0.83,0.82
GPAM,0.81,0.78
AVPI1,0.75,0.55
GYS2,0.44,1.19
PSMG1,0.77,0.86
CUL1,0.73,1.04
C16orf90,0.78,0.5
GAS2,0.71,1.19
SPIN2A,0.39,0.43
ARHGEF28,0.64,0.93
ASNSD1,0.88,0.4
PALB2,0.21,0.78
MRGPRX1,0.69,0.9
KCNC2,0.71,1.29
ADAMTS17,0.26,1.25
FYB2,0.61,0.9
CPLANE2,0.31,1.7
CD53,0.75,0.79
PIP4K2C,0.79,0.94
TBC1D23,0.74,1.14
TCP11L1,0.7,0.38
ZNF555,0.86,0.73
CD55,0.84,0.7
CHRNA10,0.42,1.77
DHRS4L2,0.63,0.64
MDM2,1.05,1.05
TMCO5A,0.55,1.6
PCDHGA6,0.59,0.43
E2F4,1.09,0.76
ST6GAL2,0.44,0.74
POTEE,0.37,1.47
GAL3ST2,0.48,1.44
USP35,0.54,1.39
SOAT1,0.58,0.78
USP18,0.32,0.8
RRAS,0.51,1.27
IL31RA,0.55,1.16
HSPA14,0.88,0.45
PDCD4,0.64,0.42
DCAF4L1,0.88,0.82
SMYD1,0.22,2.35
GOT2,0.76,1.52
FMO4,0.47,0.63
ABCA2,0.41,0.87
PCSK1,0.54,1.05
GABRR2,0.53,0.64
EFEMP2,0.33,1.07
CBLL1,0.68,0.61
MBLAC2,0.2,1.31
SACK1E,0.73,0.38
FBXW4,0.34,1.82
ELMO2,0.22 (active),0.3
TTI1,0.63,1.79
GNG2,1.1,1.46
CCND2,0.76,0.69
SMAGP,0.63,1.01
BAX,0.24,1.2
NFE2L3,0.48,1.12
UTP4,0.97,0.78
C11orf40,0.34,0.29
DNAAF19,0.24,2.87
KRTAP13-3,0.85,0.88
BEND2,0.86,0.59
ZNF773,0.92,0.74
ZNF22,0.78,0.66
